The test system of this data set is Human hepatocellular carcinoma (Huh-7) cells. Put plainly: Phosphorylation and DNA/RNA incorporation of 3H-compound 1. The data set is classed as cell-based. The note with it: 3H compound 1, after 24 h.

The structures appear in SMILES notation.

As for `Nc1ncnc2c([C@@H]3N[C@H](CO)[C@@H](O)[C@H]3O)c[nH]c12` [Compound 1, (2S,3S,4R,5R)-2-(4-Amino-5H-pyrrolo[3,2-d]pyrimidin-7-yl)-5-(hydroxymethyl) pyrrolidine-3,4-diol], the “total RNA and genomic DNA incorporation in Huh-7 cells” value was “not incorporated into mammalian RNA or DNA”.
